Results on 39 substances are retold here after patent US12116424B2 (priority 2021, dated 2024).

The nature of the data set: general procedure: Fmoc solid-phase peptide synthesis; Fmoc Dawson Dbz AM resin (thioester AIPs); pre-loaded L-valine 2-chlorotrityl resin (0.74 mmol/g) (amide AIPs); HATU, DIPEA. The settings on record: whole synthesis, 220 nm, scale of the general procedure 0.0147 mmol (thioester AIPs), 0.037 mmol (amide AIPs).
For the substance A-(C-A-M-F-V), the “final HPLC purity” value is 99.0%.

Consider A-(C-F-A-F-V), for which the “final HPLC purity” value was greater than 99%.

Turning to A-(C-F-M-A-V), the “final HPLC purity” value is on record as 99.0%.

For the substance A-(C-F-M-F-A), the “final HPLC purity” value was 98.8%.

On to A-(C-F-M-F-V), for which the “final HPLC purity” value is greater than 99%.

Take A-(C-F-M-F-dV): the “final HPLC purity” value was 98.1%.

As to A-(C-F-M-H-V), the “final HPLC purity” value was determined as 97.8%.

As for A-(C-F-M-L-V), the “final HPLC purity” value was 96.4%.

As for A-(C-F-M-W-V), the “final HPLC purity” value is greater than 99%.

Regarding A-(C-F-M-Y-V), the “final HPLC purity” value was determined as 98.6%.

For the substance A-(C-H-M-F-V), the “final HPLC purity” value came out at 95.4%.

For A-(C-L-M-F-V), the “final HPLC purity” value was 98.3%.

Take A-(C-S-M-F-A): the “final HPLC purity” value is greater than 99%.

A-(C-S-M-F-V): the “final HPLC purity” value is reported as 97.0%.

Turning to A-(C-W-M-F-V), the “final HPLC purity” value is given as 98.8%.

Turning to A-(C-Y-M-F-V), the “final HPLC purity” value was determined as 96.4%.

As for A-(dC-F-M-F-V), the “final HPLC purity” value is given as 97.9%.

Regarding A-D-S-S-M-S-K-A-(C-F-M-F-V), the “final HPLC purity” value came to 96.5%.

Regarding Ac-(C-F-M-F-V), the “final HPLC purity” value was found to be 96.9%.

In the case of Ac-(C-V-G-F-V), the “final HPLC purity” value turned out to be 98.4%.

As for D-S-S-M-S-K-A-(C-F-M-F-V), the “final HPLC purity” value stood at 98.4%.

On to K-(C-F-M-F-V), for which the “final HPLC purity” value turned out to be 98.6%.

As to K-(dC-F-M-F-V), the “final HPLC purity” value is 97.3%.

Regarding K-A-(C-F-M-F-V), the “final HPLC purity” value was found to be 97.7%.

Turning to K-A-(dC-F-M-F-V), the “final HPLC purity” value is 97.3%.

K-K-(C-F-M-F-V): the “final HPLC purity” value is given as greater than 99%.

Consider K-V-A-D-S-S-M-S-K-A-(C-F-M-F-V), for which the “final HPLC purity” value was found to be 96.4%.

For M-S-K-A-(C-F-M-F-V), the “final HPLC purity” value came out at 94.3%.

Turning to P-(C-F-M-F-V), the “final HPLC purity” value came out at 98.6%.

As for S-(C-F-L-I-F), the “final HPLC purity” value is greater than 99%.

With S-(C-V-G-L-S), the “final HPLC purity” value is greater than 99%.

S-(C-V-L-H-L): the “final HPLC purity” value is given as greater than 99%.

Take S-K-A-(C-F-M-F-V): the “final HPLC purity” value amounted to 92.3%.

Consider S-M-S-K-A-(C-F-M-F-V), for which the “final HPLC purity” value is on record as 93.2%.

Take S-S-M-S-K-A-(C-F-M-F-V): the “final HPLC purity” value is 97.9%.

T-(C-F-M-F-V): the “final HPLC purity” value is recorded as 98.6%.

As for V-(C-F-M-F-V), the “final HPLC purity” value was 96.5%.

In the case of V-A-D-S-S-M-S-K-A-(C-F-M-F-V), the “final HPLC purity” value stood at 98.2%.

Regarding dA-(C-F-M-F-V), the “final HPLC purity” value is recorded as 97.5%.
